In patent publication US8461328B2, “Tricyclic heterocyclic compounds, compositions and methods of use thereof” (Genentech, Inc., priority 2010, dated 2013):
Some of these results come from one statement about several compounds together.

Amino acid sequences for entries named in this document (tags omitted). Residues count along the entry.
UniProt P23458, 852-1154: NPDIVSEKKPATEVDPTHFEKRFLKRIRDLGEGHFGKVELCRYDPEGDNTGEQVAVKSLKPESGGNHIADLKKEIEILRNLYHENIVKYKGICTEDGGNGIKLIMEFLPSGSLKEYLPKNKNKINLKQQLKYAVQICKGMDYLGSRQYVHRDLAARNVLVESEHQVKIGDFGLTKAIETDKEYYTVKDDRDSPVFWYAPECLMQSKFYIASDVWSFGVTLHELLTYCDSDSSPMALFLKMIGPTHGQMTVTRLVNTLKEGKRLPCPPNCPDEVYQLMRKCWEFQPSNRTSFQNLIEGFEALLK

Target: T1, human JAK1 kinase domain (Homo sapiens, UniProt P23458)
T1 construct: made in house; host or cells: SF9 insect cells (baculovirus)
Test: JAK1 inhibition assay (Example B), Caliper LabChip peptide phosphorylation
Format: biochemical
Details: 1.5 nM JAK1, 25 μM ATP, Morrison tight binding model; read-out: Ki in a JAK1 kinase activity assay (Example B)

Structure (SMILES) | Ki
CC(F)CN1CCC(n2c([C@@H](C)O)nc3cnc4[nH]ccc4c32)CC1 (stereo partly drawn) [Example 697, (R)-1-{1-[1-(2-Fluoro-propyl)-piperidin-4-yl]-1,6-dihydro-1,2,3,5,6-tetraaza-as-indacen-2-yl}-ethanol] | < 500 nM
Cc1nc2cnc3[nH]ccc3c2n1C1CCN(CC(O)CO)CC1 (centres unmarked) [Example 698, 3-[4-(2-Methyl-6H-1,2,3,5,6-tetraaza-as-indacen-1-yl)-piperidin-1-yl]-propane-1,2-diol] | < 500 nM
Cc1nc2cnc3[nH]ccc3c2n1C1CCN(CC(C)O)CC1 (centres unmarked) [Example 701, 1-[4-(2-Methyl-6H-1,2,3,5,6-tetraaza-as-indacen-1-yl)-piperidin-1-yl]-propan-2-ol] | < 500 nM
C[C@@H](O)c1nc2cnc3[nH]ccc3c2n1C1CCN(c2cccc(C#N)n2)CC1 [Example 702, 4-[2-((R)-1-Hydroxy-ethyl)-6H-1,2,3,5,6-tetraaza-as-indacen-1-yl]-3,4,5,6-tetrahydro-2H-[1,2]bipyridinyl-6′-carbonitrile] | < 500 nM
Cc1noc(CN2CCC(n3c([C@@H](C)O)nc4cnc5[nH]ccc5c43)CC2)n1 [Example 703, (R)-1-{1-[1-(3-Methyl-[1,2,4]oxadiazol-5-ylmethyl)-piperidin-4-yl]-1,6-dihydro-1,2,3,5,6-tetraaza-as-indacen-2-yl}-ethanol] | < 500 nM
C[C@@H](O)c1nc2cnc3[nH]ccc3c2n1[C@H]1CCN(Cc2cnco2)C[C@H]1F [Example 704, 1-[1-(3-Fluoro-1-oxazol-5-ylmethyl-piperidin-4-yl)-1,6-dihydro-1,2,3,5,6-tetraaza-as-indacen-2-yl]-ethanol] | < 500 nM
OC1CCN(Cc2nc3cnc4[nH]ccc4c3n2C2CCN(CC(F)F)CC2)CC1 [Example 705, 1-{1-[1-(2,2-Difluoro-ethyl)-piperidin-4-yl]-1,6-dihydro-1,2,3,5,6-tetraaza-as-indacen-2-ylmethyl}-piperidin-4-ol] | < 500 nM
OC1CCC(n2cnc3cnc4[nH]ccc4c32)C1 (centres unmarked) [Example 708, 3-(6H-1,2,3,5,6-Tetraaza-as-indacen-1-yl)-cyclopentanol] | < 500 nM
O[C@H]1CC[C@@H](n2cnc3cnc4[nH]ccc4c32)C1 [Example 709, (1S,3R)-3-(6H-1,2,3,5,6-Tetraaza-as-indacen-1-yl)-cyclopentanol] | < 500 nM
O[C@@H]1CC[C@H](n2cnc3cnc4[nH]ccc4c32)C1 [Example 710, (1R,3S)-3-(6H-1,2,3,5,6-Tetraaza-as-indacen-1-yl)-cyclopentanol] | < 500 nM
O[C@@H]1CC[C@@H](n2cnc3cnc4[nH]ccc4c32)C1 [Example 711, (1R,3R)-3-(6H-1,2,3,5,6-Tetraaza-as-indacen-1-yl)-cyclopentanol] | < 500 nM
O[C@H]1CC[C@H](n2cnc3cnc4[nH]ccc4c32)C1 [Example 712, (1S,3S)-3-(6H-1,2,3,5,6-Tetraaza-as-indacen-1-yl)-cyclopentanol] | < 500 nM
C[C@]1(O)CC[C@H](n2nnc3cnc4[nH]ccc4c32)CC1 [Example 713, Trans-1-Methyl-4-(6H-1,2,3,5,6-pentaaza-as-indacen-1-yl)-cyclohexanol] | < 500 nM
C[C@]1(O)CC[C@@H](n2nnc3cnc4[nH]ccc4c32)CC1 [Example 714, Cis-1-Methyl-4-(6H-1,2,3,5,6-pentaaza-as-indacen-1-yl)-cyclohexanol] | < 500 nM
OC[C@]1(O)CC[C@H](n2nnc3cnc4[nH]ccc4c32)CC1 [Example 715, Trans-1-Hydroxymethyl-4-(6H-1,2,3,5,6-pentaaza-as-indacen-1-yl)-cyclohexanol] | < 500 nM
OC[C@]1(O)CC[C@@H](n2nnc3cnc4[nH]ccc4c32)CC1 [Example 716, Cis-1-Hydroxymethyl-4-(6H-1,2,3,5,6-pentaaza-as-indacen-1-yl)-cyclohexanol] | < 500 nM
Cc1nc2cnc3[nH]ccc3c2n1[C@H]1CC[C@@H](NCC(F)(F)F)C1 [Example 719, [(1R,3S)-3-(2-Methyl-6H-1,3,5,6-tetraaza-as-indacen-1-yl)-cyclopentyl]-(2,2,2-trifluoro-ethyl)-amine] | < 500 nM
